# Experimental data as given in the supplement of paper PMC4635364.
# Structures can show the parent of a compound that is named as a salt. The list shows a part of the results. Single values are uncertain here, since repeats match poorly.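 ReNCell VM, a human fetal ventral-midbrain neural progenitor line, was differentiated without mitogens. Blinded raters scored images stained for doublecortin (early neurons) or tyrosine hydroxylase (dopaminergic neurons) against untreated wells (0 = no change). Scores were averaged across repeats and both raters, and compounds averaging 2 or more were selected as hits for retesting.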
# How the values were obtained:
# ReNCell VM [1] = assay: neuronal differentiation score (DCX+ cell fraction vs untreated, manual image score) (score (-3 to 3)); higher = more neuronal differentiation; settings: 2 uM, 2 weeks
# ReNCell VM [2] = assay: dopaminergic neuron differentiation score (TH+ cell fraction vs untreated, manual image score) (score (0 to 3)); higher = more TH+ dopaminergic neuron differentiation; settings: 2 uM, 4 weeks, BDNF 10 ng/ml + GDNF 10 ng/ml
compound,measurement,setting,value
CCCCCCCCCCCCCCCCn1cc[n+](Cc2ccccc2)c1C,neuronal differentiation score,ReNCell VM [1]; library: Tocriscreen,inactive: 0
same,dopaminergic neuron differentiation score,ReNCell VM [2]; library: Tocriscreen,inactive: 0
Oc1ccc([C@H]2Oc3cc(O)cc(O)c3C[C@H]2O)cc1,neuronal differentiation score,ReNCell VM [1]; library: Spectrum,inactive: 0
same,dopaminergic neuron differentiation score,ReNCell VM [2]; library: Spectrum,inactive: 0
CC(C(=O)O)c1ccc(N2Cc3ccccc3C2=O)cc1 (configuration not stated),neuronal differentiation score,ReNCell VM [1]; library: Spectrum,inactive: 0
same,dopaminergic neuron differentiation score,ReNCell VM [2]; library: Spectrum,inactive: 0
C[N+](C)(C)CCOP(=O)(O)OP(=O)([O-])OC[C@H]1O[C@@H](n2ccc(N)nc2=O)[C@H](O)[C@@H]1O [Citicoline sodium],neuronal differentiation score,ReNCell VM [1]; library: LOPAC,inactive: 0
same,dopaminergic neuron differentiation score,ReNCell VM [2]; library: LOPAC,inactive: 0
OC(CCCN1CCN(c2ncc(F)cn2)CC1)c1ccc(F)cc1 (configuration not stated),neuronal differentiation score,ReNCell VM [1]; library: Tocriscreen,inactive: 0
same,dopaminergic neuron differentiation score,ReNCell VM [2]; library: Tocriscreen,inactive: 0
CCN(CCCc1ccccc1)CCCc1ccccc1 [Alverine citrate salt],neuronal differentiation score,ReNCell VM [1]; library: Prestwick,inactive: 0
same,dopaminergic neuron differentiation score,ReNCell VM [2]; library: Prestwick,inactive: 0
O=C(Oc1ccccc1C(=O)O)c1ccccc1O,neuronal differentiation score,ReNCell VM [1]; library: Spectrum,inactive: 1
same,dopaminergic neuron differentiation score,ReNCell VM [2]; library: Spectrum,inactive: 0
COc1ccc2c(c1)c(CC(=O)O)c(C)n2C(=O)c1ccccc1 [1-benzoyl-5-methoxy-2-methylindole-3-acetic acid],neuronal differentiation score,ReNCell VM [1]; library: LOPAC,inactive: 1
same,dopaminergic neuron differentiation score,ReNCell VM [2]; library: LOPAC,inactive: 0
C=CC[S+]([O-])C[C@H](N)C(=O)O (mixture of isomers),neuronal differentiation score,ReNCell VM [1]; library: Spectrum,inactive: 0
same,dopaminergic neuron differentiation score,ReNCell VM [2]; library: Spectrum,inactive: 0
Cc1ccc(C)c(OCCCC(C)(C)C(=O)O)c1,neuronal differentiation score,ReNCell VM [1]; library: Spectrum,inactive: 1
same,dopaminergic neuron differentiation score,ReNCell VM [2]; library: Spectrum,inactive: 0
Cc1cc(=O)oc2cc(O)ccc12,neuronal differentiation score,ReNCell VM [1]; library: Spectrum,inactive: 0
same,dopaminergic neuron differentiation score,ReNCell VM [2]; library: Spectrum,inactive: 0
N[C@@H]1CONC1=O [D-Cycloserine],neuronal differentiation score,ReNCell VM [1]; library: LOPAC,inactive: 0
same,dopaminergic neuron differentiation score,ReNCell VM [2]; library: LOPAC,inactive: 0
CC1c2ccccc2CN1CC1=NCCN1 (configuration not stated),neuronal differentiation score,ReNCell VM [1]; library: Tocriscreen,inactive: 0
same,dopaminergic neuron differentiation score,ReNCell VM [2]; library: Tocriscreen,inactive: 0
COc1cc2c(cc1OC)-c1c(oc3cc(O)cc(O)c3c1=O)CO2,neuronal differentiation score,ReNCell VM [1]; library: Spectrum,inactive: 0
same,dopaminergic neuron differentiation score,ReNCell VM [2]; library: Spectrum,inactive: 0
CN1CCN(C(c2ccccc2)c2ccccc2)CC1,neuronal differentiation score,ReNCell VM [1]; library: Spectrum,inactive: 0
same,dopaminergic neuron differentiation score,ReNCell VM [2]; library: Spectrum,inactive: 0
COc1ccc2oc(-c3ccccc3)c(OC)c(=O)c2c1,neuronal differentiation score,ReNCell VM [1]; library: Spectrum,inactive: 0
same,dopaminergic neuron differentiation score,ReNCell VM [2]; library: Spectrum,inactive: 0
Nc1nc2ccc(OC(F)(F)F)cc2s1,neuronal differentiation score,ReNCell VM [1]; library: Spectrum,inactive: 0
same,dopaminergic neuron differentiation score,ReNCell VM [2]; library: Spectrum,inactive: 0
COc1cccc(C(=O)NCCN2CCN(c3ccc(Cl)cc3)CC2)c1,neuronal differentiation score,ReNCell VM [1]; library: LOPAC,inactive: 0
same,dopaminergic neuron differentiation score,ReNCell VM [2]; library: LOPAC,inactive: 0
"c1ccc(-c2ccccn2)nc1 [2,2'-Bipyridyl]",neuronal differentiation score,ReNCell VM [1]; library: LOPAC,inactive: 0
same,dopaminergic neuron differentiation score,ReNCell VM [2]; library: LOPAC,inactive: 0
CCCC(C(=O)OCCN(CC)CC)(c1ccccc1)c1ccccc1,neuronal differentiation score,ReNCell VM [1]; library: Spectrum,inactive: 0
same,dopaminergic neuron differentiation score,ReNCell VM [2]; library: Spectrum,inactive: 0
CC(=O)N[C@@H](CC(=O)N[C@@H](CCC(=O)O)C(=O)O)C(=O)O,neuronal differentiation score,ReNCell VM [1]; library: Spectrum,inactive: 0
same,dopaminergic neuron differentiation score,ReNCell VM [2]; library: Spectrum,inactive: 0
CCOc1ccc(Nc2nc(-c3c(C)nc4ccccn34)cs2)cc1,neuronal differentiation score,ReNCell VM [1]; library: Tocriscreen,inactive: 0
same,dopaminergic neuron differentiation score,ReNCell VM [2]; library: Tocriscreen,inactive: 0
CCN1CCC[C@H]1CNC(=O)c1c(OC)ccc(Br)c1OC [Remoxipride Hydrochloride],neuronal differentiation score,ReNCell VM [1]; library: Prestwick,inactive: 0
same,dopaminergic neuron differentiation score,ReNCell VM [2]; library: Prestwick,inactive: 0
CCCOc1ccc(C(=O)OCCN(CC)CC)cc1N,neuronal differentiation score,ReNCell VM [1]; library: Spectrum,inactive: 0
same,dopaminergic neuron differentiation score,ReNCell VM [2]; library: Spectrum,inactive: 0
O=C(O)Cc1sc(-c2ccccc2)nc1-c1ccc(Cl)cc1 [Fentiazac],neuronal differentiation score,ReNCell VM [1]; library: Prestwick,inactive: 0
same,dopaminergic neuron differentiation score,ReNCell VM [2]; library: Prestwick,inactive: 0
NC(=O)NC1NC(=O)NC1=O (configuration not stated) [Allantoin],neuronal differentiation score,ReNCell VM [1]; library: Prestwick,inactive: 0
same,dopaminergic neuron differentiation score,ReNCell VM [2]; library: Prestwick,inactive: 0
CN[C@H]1CC[C@@]2(C)C(=CC[C@H]3[C@@H]4CC[C@@H]5[C@H](C)N(C)C[C@@]54CC[C@@H]32)C1 [Isoconessimine],neuronal differentiation score,ReNCell VM [1]; library: Phytochemical,inactive: 0
same,dopaminergic neuron differentiation score,ReNCell VM [2]; library: Phytochemical,inactive: 0
CN1CCC(OC(c2ccccc2)c2ccccc2)CC1,neuronal differentiation score,ReNCell VM [1]; library: Spectrum,inactive: 0
same,dopaminergic neuron differentiation score,ReNCell VM [2]; library: Spectrum,inactive: 0
Oc1c(Cl)cc(Cl)cc1Sc1cc(Cl)cc(Cl)c1O,neuronal differentiation score,ReNCell VM [1]; library: Spectrum,inactive: 0
same,dopaminergic neuron differentiation score,ReNCell VM [2]; library: Spectrum,inactive: 0
CC(=O)OCC(=O)[C@@]1(O)[C@@H](C)C[C@H]2[C@@H]3CCC4=CC(=O)C=C[C@]4(C)[C@@]3(F)[C@@H](O)C[C@@]21C,neuronal differentiation score,ReNCell VM [1]; library: Spectrum,inactive: 0
same,dopaminergic neuron differentiation score,ReNCell VM [2]; library: Spectrum,inactive: 0
CC(=O)Nc1cccc(O)c1,neuronal differentiation score,ReNCell VM [1]; library: Spectrum,inactive: 0
same,dopaminergic neuron differentiation score,ReNCell VM [2]; library: Spectrum,inactive: 0
CC(NC(=O)c1ccccc1/N=C/c1c(O)ccc2ccccc12)c1ccccc1 (configuration not stated) [Sirtinol],neuronal differentiation score,ReNCell VM [1]; library: Tocriscreen,inactive: 0
same,dopaminergic neuron differentiation score,ReNCell VM [2]; library: Tocriscreen,inactive: 0
CC(C)COCC(CN(Cc1ccccc1)c1ccccc1)N1CCCC1 (configuration not stated),neuronal differentiation score,ReNCell VM [1]; library: Spectrum,inactive: 0
same,dopaminergic neuron differentiation score,ReNCell VM [2]; library: Spectrum,inactive: 0
O=C(Nc1ccccc1)N[C@@H]1C[C@@H](C(=O)O)Nc2cc(Cl)cc(Cl)c21,neuronal differentiation score,ReNCell VM [1]; library: Tocriscreen,inactive: 0
same,dopaminergic neuron differentiation score,ReNCell VM [2]; library: Tocriscreen,inactive: 0
O=C1CN(/N=C/c2ccc(-c3ccc([N+](=O)[O-])cc3)o2)C(=O)N1 [Dantrolene sodium salt],neuronal differentiation score,ReNCell VM [1]; library: Prestwick,inactive: 0
same,dopaminergic neuron differentiation score,ReNCell VM [2]; library: Prestwick,inactive: 0
"N[C@H](C(=O)O)[C@H]1C[C@@H]1C(=O)O [(2S,1'S,2'S)-2-(carboxycyclopropyl)glycine]",neuronal differentiation score,ReNCell VM [1]; library: LOPAC,inactive: 0
same,dopaminergic neuron differentiation score,ReNCell VM [2]; library: LOPAC,inactive: 0
"Nc1ncnc2c1ncn2[C@@H]1O[C@H](COP(=O)(O)CP(=O)(O)OP(=O)(O)O)[C@H](O)C1O (stereo partly drawn) [alpha,beta-Methylene adenosine 5'-triphosphate dilithium]",neuronal differentiation score,ReNCell VM [1]; library: LOPAC,inactive: 0
same,dopaminergic neuron differentiation score,ReNCell VM [2]; library: LOPAC,inactive: 0
CC(=O)OC1CCC23CC1(C)CCC2C(C)(C)CC3OC(C)=O (configuration not stated),neuronal differentiation score,ReNCell VM [1]; library: Spectrum,inactive: 0
same,dopaminergic neuron differentiation score,ReNCell VM [2]; library: Spectrum,inactive: 0
COc1ccc(C[C@H](N)C(=O)N[C@H]2[C@@H](O)[C@H](n3cnc4c(N(C)C)ncnc43)O[C@@H]2CO)cc1 [Puromycin dihydrochloride],neuronal differentiation score,ReNCell VM [1]; library: Phytochemical,inactive: 0
same,dopaminergic neuron differentiation score,ReNCell VM [2]; library: Phytochemical,inactive: 0
NC(=O)CNCCC(c1ccccc1)c1ccccc1 [N20C hydrochloride],neuronal differentiation score,ReNCell VM [1]; library: Tocriscreen,inactive: 0
same,dopaminergic neuron differentiation score,ReNCell VM [2]; library: Tocriscreen,inactive: 0
O=C(O)CN1C(=O)c2cccc3cccc(c23)C1=O,neuronal differentiation score,ReNCell VM [1]; library: Spectrum,inactive: 0
same,dopaminergic neuron differentiation score,ReNCell VM [2]; library: Spectrum,inactive: 0

# Another view of some results above:
compound | measurement | setting | value
COc1ccc2c(c1)c(CC(=O)O)c(C)n2C(=O)c1ccccc1 [1-benzoyl-5-methoxy-2-methylindole-3-acetic acid] | neuronal differentiation score | ReNCell VM [1]; library: LOPAC | inactive: 1
CCOc1ccc(Nc2nc(-c3c(C)nc4ccccn34)cs2)cc1 | neuronal differentiation score | ReNCell VM [1]; library: Tocriscreen | inactive: 0
same | dopaminergic neuron differentiation score | ReNCell VM [2]; library: Tocriscreen | inactive: 0
O=C(O)Cc1sc(-c2ccccc2)nc1-c1ccc(Cl)cc1 [Fentiazac] | dopaminergic neuron differentiation score | ReNCell VM [2]; library: Prestwick | inactive: 0
